About 18,000 (4.4%) of roughly 410,000 compounds were called active. The inconclusive results got no clear call from the source; some entries with a clear call stand among them for comparison. Cut-off read from the data, not from the text of the source: active = activity change below about -60%; inconclusive = no clear call, values can overlap the other calls; inactive = above about -39%.
Test: qHTS Assay for inhibitors of the human cytomegalovirus (HCMV)
Conditions: HFF cells, HCMV-luciferase reporter, 72 h; at 57.5 µM; hits give low values
Summary of the method: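 Human foreskin fibroblasts infected with luciferase-reporter HCMV at MOI 1 PFU/cell, compounds at two doses. Luciferase measured 72 h post infection; normalized to buffer-only basal and Salinomycin (10uM) controls.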
% is set by controls: 0 for no effect and ±100 for the full control effect.

| Compound | activity change, negative = inhibition |
| --- | --- |
| COc1ccccc1NC(=O)CSc1nnc2ccc(-c3ccccn3)nn12 | inactive: 6.06% |
| CC(C)Cn1cc(C(=O)NCCCOC(C)C)c2c3ccccc3n(C)c2c1=O | inactive: -0.481% |
| Cc1cc(C)cc(N(CCC#N)C(=O)COC(=O)Cn2[nH]c(=O)c3ccccc3c2=O)c1 | inactive: -16.3% |
| CC(C)(C)c1ccc(OCCCNCc2ccccc2)cc1 | inactive: 27.5% |
| CN(CCn1ccnc1)Cc1cn(-c2ccccc2)nc1-c1ccc2c(c1)OCO2 | inconclusive: -44.7% |
| Cc1cc(Cl)ccc1C(=O)C1CCCN(Cc2ccon2)C1 (stereo not drawn) | inconclusive: -42.9% |
| CCOC(=O)C1=C(c2ccccc2)NC(N)=NC1c1ccc(OCc2ccc(C(=O)OC)cc2)cc1 (stereo not drawn) | inconclusive: -42.1% |
| COC(=O)c1sccc1NC(=O)Nc1cccc(Cl)c1Cl | inconclusive: -41.1% |
| CC1CCCN(S(=O)(=O)c2ccc3c(c2)n(C)c(=O)c(=O)n3C)C1 (stereo not drawn) | inactive: -5.71% |
| O=C(CC(c1ccccc1)c1ccccc1)N1CCN(c2ccccn2)CC1 | inconclusive: -41.3% |
| Cc1ccccc1OCC(=O)Nc1ccccc1N1CCC(C)CC1 | inconclusive: -41.5% |
| COc1ccc2oc(=O)cc(CN3CCN(C(=O)c4ccccc4F)CC3)c2c1 | inconclusive: -52.4% |
| Cc1[nH]nc2c1-c1nc3ccccc3nc1C(C)(C)C2 | active: -74.3% |
| COc1ccc(/C=N/NC(=O)CCn2cnc(-c3ccccc3)c2-c2ccccc2)cc1 | active: -82.6% |
| O=[N+]([O-])c1ccc(-n2cc(-c3ccccc3)nn2)cc1 | inactive: -12.6% |
| Oc1ccc(Br)cc1CN1CCN(c2ccccc2)CC1 | inconclusive: -41.3% |
| O=C(/C=C/c1ccccc1)NC(=S)NNC(=O)c1cnccn1 | active: -98% |
| Cc1ccc(C(C)(C)C)c(OCCCCN2CCCC2)c1 | active: -65.6% |
| N/C(=N\c1nc2ccccc2o1)NC(=O)c1ccc([N+](=O)[O-])cc1 | inconclusive: -44.9% |
| Cc1c(CCOC(=O)CC23CC4CC(CC(C)(C4)C2)C3)sc[n+]1CC(=O)c1ccccc1 | active: -70.8% |
| Cc1ncoc1C(=O)NCC1=C(c2cccc3ccccc23)C[C@@H]2CC[C@H]1N2Cc1ccco1 | inconclusive: -41.9% |
| CCCC(=O)NC(c1cccc([N+](=O)[O-])c1)c1ccc2cccnc2c1O (stereo not drawn) | active: -98.5% |

| Compound | activity change, negative = inhibition |
| --- | --- |
| O=C(CCCN1C(=O)/C(=C/c2cccs2)SC1=S)NNC(=O)c1cccnc1 | inconclusive: -41% |
| Fc1cccc(-c2nc(-c3ccncc3)no2)c1 | inactive: 31.1% |
| COc1ccc2c(c1)C(C)=CC(C)(C)N2S(=O)(=O)c1ccc(C)cc1 | active: -85.9% |
| O=C(Nc1cc(Sc2nc3ccccc3s2)cc([N+](=O)[O-])c1)c1cccc(F)c1F | inconclusive: -51.5% |
| Brc1ccc(CN2C3=NCCCN3c3ccccc32)cc1 | inconclusive: -53.9% |
| Oc1cccc(C(Nc2ccccn2)c2ccc3cccnc3c2O)c1Cl (stereo not drawn) | active: -82.3% |
| CCn1nc(C)cc1C(=O)Sc1cccc(Br)c1 | active: -107% |
| COc1cccc(NC(=O)c2ccc(-c3ccccc3[N+](=O)[O-])o2)c1 | inconclusive: -48.4% |
| CCc1cccc(CC)c1N(COC)C(=O)Cn1c(C(C)O)nc2ccccc21 (stereo not drawn) | inactive: 6.5% |
| CC1(C(=O)NCc2cccnc2)CCC(=O)N1CCc1ccccc1 (stereo not drawn) | active: -96.8% |
| Cc1ccc(C)c(Cn2c(=O)c3c(nc4n3CCN4c3ccc(F)cc3)n(C)c2=O)c1 | inactive: -29.1% |
| CCCCn1c(SCC(=O)Nc2nnc(C(C)C)s2)nc2c1c(=O)n(C)c(=O)n2C | active: -74.7% |
| CCC(C)(C)NC(=O)CCCSc1nc2ccccc2s1 | inactive: -2.49% |
| CCOc1ccc(C(=O)/C=C/c2cc(OC)c(OC)c(OC)c2)cc1 | active: -88.3% |
| CCOc1ccc(-n2c(-c3ccc(Cl)cc3)c[n+]3c2SCC3)cc1 | inconclusive: -58.7% |
| COc1cc(CCC(=O)Nc2ccc(Cl)c(C(F)(F)F)c2)cc(OC)c1OC | inconclusive: -40.4% |
| Cc1cc(C(=O)Nc2cccc3c2O[C@@H](CN(C)S(=O)(=O)c2ccccc2)[C@H](C)CN([C@@H](C)CO)C3=O)n(C)n1 | inconclusive: -57.6% |
| CCc1cc(=O)n2[nH]c(-c3ccccc3)c(-c3ccccc3)c2n1 | inconclusive: -45.7% |
| O=C(CSc1nc(-c2cccs2)cc(C(F)(F)F)n1)Nc1cc(OCC(F)(F)F)cc([N+](=O)[O-])c1 | inconclusive: -44.9% |
| O=C(COc1cc2oc(=O)c3c(c2cc1Cl)CCCC3)NCc1cccnc1 | inconclusive: -48.7% |
| N#CC1CN(C(c2ccccc2)c2ccccc2)C1 | inconclusive: -57.8% |
| N/C(=N\c1nc(CSc2ccccn2)cc(=O)[nH]1)Nc1ccc(Cl)cc1Cl | inconclusive: -52.6% |

Arranged by length of the SMILES (largest number first): five of the compounds above

| Compound | activity change, negative = inhibition |
| --- | --- |
| Cc1cc(C(=O)Nc2cccc3c2O[C@@H](CN(C)S(=O)(=O)c2ccccc2)[C@H](C)CN([C@@H](C)CO)C3=O)n(C)n1 | inconclusive: -57.6% |
| N/C(=N\c1nc(CSc2ccccn2)cc(=O)[nH]1)Nc1ccc(Cl)cc1Cl | inconclusive: -52.6% |
| CCOc1ccc(C(=O)/C=C/c2cc(OC)c(OC)c(OC)c2)cc1 | active: -88.3% |
| CC1(C(=O)NCc2cccnc2)CCC(=O)N1CCc1ccccc1 (stereo not drawn) | active: -96.8% |
| CCC(C)(C)NC(=O)CCCSc1nc2ccccc2s1 | inactive: -2.49% |

Following part:

| Compound | activity change, negative = inhibition |
| --- | --- |
| Cc1sc2nc(CN3CCCCC3)nc(Nc3ccc4c(c3)OCCO4)c2c1C | active: -62.5% |
| Cc1ccc(CNc2oc(-c3ccco3)nc2S(=O)(=O)c2ccccc2)cc1 | inactive: -30.7% |
| S=C(Nc1ccccc1Cl)N(CCN1CCCCC1)Cc1ccco1 | inconclusive: -47.8% |
| O=C(O)C(c1ccccc1)N1C(=O)/C(=C/c2cccs2)SC1=S (stereo not drawn) | inconclusive: 0% |
| Cn1nnnc1SCc1cccc2ccccc12 | inactive: -28.6% |
| Nc1nonc1-n1nnc(C(=O)N/N=C/c2cccc(F)c2)c1CN1CCCCCC1 | inconclusive: -44.5% |
| COc1ccc(-c2cnnc(N/N=C/c3ccc(C)o3)n2)cc1 | inconclusive: -56.5% |
| COc1cc(C(=O)O/N=C2\C=CC(=O)C=C2C)cc(OC)c1OC | inconclusive: -43.5% |
| CC(NC(=O)c1cc(Br)ccc1Cl)c1ccccc1 (stereo not drawn) | inconclusive: -49.5% |
| CC1(C)CC(=O)C/C(=N\NC(=O)C2CC2c2ccccc2)C1 (stereo not drawn) | inactive: 12.2% |
| CCOc1ccc(CN(C)Cc2cc(=O)oc3cc(C)c(Cl)cc23)cc1 | inconclusive: -40.8% |
| CCC1CCc2c(sc3nc(SCC(=O)NCc4ccco4)n(-c4ccccc4)c(=O)c23)C1 (stereo not drawn) | active: -74.8% |
| Cc1cc2ccccn2c1C(=O)c1cccc(F)c1 | inconclusive: -43.7% |
| CCn1c(SCC(=O)Nc2ccccc2OC)nc2ccccc2c1=O | inconclusive: -42.2% |
| CSc1cccc(NC(=O)C(C)C)c1 | inactive: -7.89% |
| COc1c(C)cc(C(=O)C2CCCN(S(=O)(=O)c3c(C)noc3C)C2)cc1C (stereo not drawn) | inconclusive: -42.5% |
| N/C(=N\OC(=O)CCc1ccccc1)c1cccc(Br)c1 | inconclusive: -53.7% |
| COc1ccc(/C=N/Nc2nc(C)cc(-c3ccccc3)n2)cc1OC | active: -86.3% |
| COc1ccc(C2C(C(=O)c3ccco3)=C(O)C(=O)N2CCc2ccccc2)cc1OC (stereo not drawn) | inactive: 17.1% |
| Cc1nn(C(C)C(=O)NCCCN2CCCC2)c(=O)c2nn(-c3ccccc3)c(C)c12 (stereo not drawn) | inconclusive: -40.8% |
| COc1cccc2sc(N(CCCN(C)C)C(=O)CCS(=O)(=O)c3ccccc3)nc12 | inconclusive: -55.4% |
| O=C(Nc1cccc(S(=O)(=O)c2cccc(NC(=O)C3CC3)c2)c1)C1CC1 | inconclusive: -40.6% |

| Compound | activity change, negative = inhibition |
| --- | --- |
| C[C@H](CO)N1C[C@H](C)[C@@H](CN(C)Cc2ccc(C(=O)O)cc2)Oc2c(cccc2N(C)C)C1=O | inconclusive: -44.7% |
| Cc1ccc(S(=O)(=O)Nc2ccc(C(=O)Nc3ccncc3)cc2)cc1 | inactive: 28.2% |
| Cc1cccc2nc(COc3ccc(Cl)c4cccnc34)cn12 | active: -80.3% |
| CCOC(=O)c1sc(N/N=C/c2ccc(N(C)C)cc2)nc1C | inactive: 58% |
| Cc1cc(=O)oc2cc(NC(=O)COc3ccccc3[N+](=O)[O-])ccc12 | inactive: -7.2% |
| O=C(Nc1cc(S(=O)(=O)N2CCOCC2)ccc1N1CCOCC1)c1ccc([N+](=O)[O-])s1 | inconclusive: -48.6% |
| COc1ccc(Cn2nnnc2CN(CCCN2CCOCC2)Cc2cc3cc(OC)ccc3[nH]c2=O)cc1 | inconclusive: -41.2% |
| O=C(NCc1cccs1)Nc1cccs1 | inactive: 31.1% |
| COc1cc(NC(=O)COn2nnc3ccc(S(C)(=O)=O)cc32)cc(OC)c1 | active: -68% |
| COc1ccccc1C(=O)Nc1ccccc1SC(=O)c1ccccc1OC | inconclusive: -56.6% |
| O=C(NCc1cccnc1)c1sc2cc(Cl)ccc2c1Cl | inactive: -22.1% |
| O=C(Cc1cc(=O)[nH]c(=O)[nH]1)N1CCC(Cc2ccccc2)CC1 | inconclusive: -44.9% |
| COc1ccc(N/N=C(\C#N)C(N)=O)cc1 | inactive: 36.1% |
| CCOc1ccc(NC(=O)CCn2c(-c3ccc(F)cc3)cc(C(C)=O)c2C)cc1 | inconclusive: 0% |
| COc1ccc(-c2csc3ncnc(N4CCN(S(=O)(=O)c5cccc(Br)c5)CC4)c23)cc1 | inconclusive: -44.3% |
| Cc1ccc(CN2C(=O)SC(Nc3ccccc3)C2=O)cc1 (stereo not drawn) | inactive: 4.93% |
| O=C(CN1C(=O)C2CC=CCC2C1=O)Nc1nnc(C2CC2)s1 (stereo not drawn) | inactive: -10.1% |
| CCOc1ccccc1NC(=O)c1ccc(NC(=O)C2CCCO2)cc1 (stereo not drawn) | inconclusive: -40.2% |
| O=C(NN=C1CCN(Cc2ccccc2)CC1)C(O)c1ccccc1 (stereo not drawn) | inconclusive: -40.1% |
| O=C(NC(=S)NCCC1=CCCCC1)c1ccco1 | inactive: -38.1% |
| Cc1ccc2nc(-c3ccccc3O)c(Nc3ccc4c(c3)OCCO4)n2c1 | inconclusive: -43.5% |
| Cc1cc(N2CCN(c3ccccc3F)CC2)n2cnnc2n1 | inconclusive: -58.8% |
